# Like-named read-outs stand apart in the source and are kept apart here. Some of these results come from one statement about several compounds together. At least one compound was matched to its structure with a doubt left.
# Columns and labels:
# Type in all cases: in vivo
# [1] = tested on: potato leafhopper (Empoasca fabae); conditions: 6 days, Soleil bean plant, very good to excellent levels of control efficacy
# [2] = tested on: diamondback moth (Plutella xylostella); experiment: Test A: control of diamondback moth on radish plant, foliar spray; conditions: 6 days, very good to excellent levels of control efficacy
# [3] = tested on: fall armyworm (Spodoptera frugiperda); experiment: Test B: control of fall armyworm on maize plant, foliar spray; conditions: very good to excellent levels of control efficacy
SMILES,control efficacy: mortality ([1]; sprayed at 50 ppm) [%],control efficacy: feeding damage (40% or less feeding damage and/or 100% mortality) ([2]; sprayed at 10 ppm) [%],control efficacy: feeding damage (40% or less feeding damage and/or 100% mortality) ([2]; sprayed at 50 ppm) [%],control efficacy: feeding damage (40% or less feeding damage and/or 100% mortality) ([3]; sprayed at 10 ppm) [%],control efficacy: feeding damage (40% or less feeding damage and/or 100% mortality) ([3]; sprayed at 50 ppm) [%],control efficacy: mortality ([1]; sprayed at 10 ppm) [%]
COc1ccc(-c2c([O-])[n+](Cc3cnc(Cl)s3)c3c(C)cccn3c2=O)cc1-c1ccc(Cl)cc1F [Compound 238],≥ 80,≤ 40,≤ 40,≤ 40,≤ 40,
COc1ccc(-c2c([O-])[n+](Cc3cnc(Cl)s3)c3c(C)cccn3c2=O)cc1-c1ccc(Cl)cc1 [Compound 239],≥ 80,≤ 40,≤ 40,≤ 40,≤ 40,≥ 80
Cc1cccn2c(=O)c(-c3cc(C#N)cc(C(F)(F)F)c3)c([O-])[n+](Cc3cnc(Cl)s3)c12 [Compound 240],≥ 80,≤ 40,≤ 40,≤ 40,≤ 40,≥ 80
CCCCc1c([O-])[n+](Cc2cnc(Cl)s2)c2c(C)cccn2c1=O [Compound 245],≥ 80,≤ 40,≤ 40,≤ 40,≤ 40,≥ 80
Cc1cc(-c2ccc(C(F)(F)F)nc2)cc(-c2c([O-])[n+](Cc3cnc(Cl)s3)c3c(C)cccn3c2=O)c1 [Compound 246],≥ 80,≤ 40,≤ 40,≤ 40,≤ 40,≥ 80
COc1ccc(-c2ccc(F)cc2Cl)cc1-c1c([O-])[n+](Cc2cnc(Cl)s2)c2c(C)cccn2c1=O [Compound 250],≥ 80,≤ 40,≤ 40,≤ 40,≤ 40,
Cc1cccn2c(=O)c(-c3ccc(F)c(-c4ccc(F)cc4Cl)c3)c([O-])[n+](Cc3cnc(Cl)s3)c12 [Compound 251],≥ 80,≤ 40,≤ 40,≤ 40,≤ 40,
Cc1cccn2c(=O)c(-c3cc(Cl)cc(-c4ccc(Cl)cc4)c3)c([O-])[n+](Cc3cnc(Cl)s3)c12 [Compound 256],≥ 80,≤ 40,≤ 40,≤ 40,≤ 40,≥ 80
Cc1cccn2c(=O)c(-c3cc(Cl)cc(Br)c3)c([O-])[n+](Cc3cnc(Cl)s3)c12 [Compound 257],≥ 80,≤ 40,≤ 40,≤ 40,≤ 40,≥ 80

# From US8722690B2, “Mesoionic pesticides” (E I du Pont de Nemours and Company, priority 2009, dated 2014)
